Some entries share one result that the patent states for a list of compounds.
These compounds were tested on Phakopsora pachyrhizi (assay: Phakopsora pachyrhizi / soybean / preventative (soybean rust)). Conditions: 200 ppm; soybean leaf disks, inoculated one day after application, assessed 12-14 days after application.
Type: in vivo

**Q.** Which “control of Phakopsora pachyrhizi (percent disease control compared to untreated)” value does the source give for CCC1(NC(=O)c2nc(Nc3cc(F)cc(F)c3)ccc2OC)CCC1 [Compound P-178, 6-(3,5-difluoroanilino)-N-(1-ethylcyclobutyl)-3-methoxy-pyridine-2-carboxamide] here?
**A.** at least 80%

**Q.** Which “control of Phakopsora pachyrhizi (percent disease control compared to untreated)” value does the source give for COc1ccc(Nc2cc(F)cc(F)c2)nc1C(=O)NC1(C)CCC1 [Compound P-118, 6-(3,5-difluoroanilino)-3-methoxy-N-(1-methylcyclobutyl)pyridine-2-carboxamide] here?
**A.** at least 80%

**Q.** With COc1ccc(Nc2cc(F)nc(F)c2)nc1C(=O)NC1CCC1(C)C (stereo not shown) [Compound P-4, 6-[(2,6-difluoro-4-pyridyl)amino]-N-(2,2-dimethylcyclobutyl)-3-methoxy-pyridine-2-carboxamide] as the compound, how does the “control of Phakopsora pachyrhizi (percent disease control compared to untreated)” value read?
**A.** at least 80%

**Q.** With COc1ccc(Nc2cc(F)cc(F)c2)nc1C(=O)NC1CCC1(C)C (stereo not shown) [Compound P-7, 6-(3,5-difluoroanilino)-N-(2,2-dimethylcyclobutyl)-3-methoxy-pyridine-2-carboxamide] as the compound, how does the “control of Phakopsora pachyrhizi (percent disease control compared to untreated)” value read?
**A.** at least 80%

**Q.** For COc1ccc(Nc2cc(F)cc(F)c2)nc1C(=O)NC1(C(C)C)CCC1 [Compound P-179, 6-(3,5-difluoroanilino)-N-(1-isopropylcyclobutyl)-3-methoxy-pyridine-2-carboxamide], which “control of Phakopsora pachyrhizi (percent disease control compared to untreated)” value is on record?
**A.** at least 80%

**Q.** COc1ccc(Nc2cc(F)cc(F)c2)nc1C(=O)NC1(C)CCCC1 [Compound P-107, 6-(3,5-difluoroanilino)-3-methoxy-N-(1-methylcyclopentyl)pyridine-2-carboxamide] was tested. Which “control of Phakopsora pachyrhizi (percent disease control compared to untreated)” value did it give?
**A.** at least 80%

**Q.** Which “control of Phakopsora pachyrhizi (percent disease control compared to untreated)” value does the source give for COc1ccc(Nc2cc(F)nc(F)c2)nc1C(=O)NC1(C)CCCC1 [Compound P-109, 6-[(2,6-difluoro-4-pyridyl)amino]-3-methoxy-N-(1-methylcyclopentyl)pyridine-2-carboxamide] here?
**A.** at least 80%
